This passage reports binding results from paper PMC6358605.

The assay addresses T1, FLAG-M1-MANF (UniProt Q9CXI5).
T1 sequence: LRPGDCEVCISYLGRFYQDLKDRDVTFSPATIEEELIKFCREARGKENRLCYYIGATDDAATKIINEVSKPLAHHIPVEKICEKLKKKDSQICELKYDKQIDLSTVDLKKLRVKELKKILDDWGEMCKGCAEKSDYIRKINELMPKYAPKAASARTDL
Put plainly: affinity purification with mass spectrometry; in vivo cross-linking with 1 mM DSP, lysis in TBS/Ca2+ buffer, ANTI-FLAG-M1 agarose IP of FLAG-M1-MANF from CHO-K1 S21 MANF-/- cells; Coomassie bands excised and analysed by mass spectrometry.

Results are given in words; binding and its absence hold for the method and conditions named. Binding seen in cells or lysates may run through a third protein. A yes stands for co-enrichment or nearness to the bait. Other partners may have been found. Tags and fused reporters may be left off the sequences shown.

B1: Grp170 (endogenous, CHO-K1 S21 cells) (protein, UniProt Q60432 33-999)
chain: LAVMSVDLGSESMKVAIVKPGVPMEIVLNKESRRKTPVTVTLKENERFLGDSAAGMAIKNPKATLRYFQHLLGKQADNPHVALYRDRFPEHELNIDPQRQTVRFQISPQLQFSPEEVLGMVLNYSRSLAEDFAEQPIKDAVITVPAFFNQAERRAVLQAARMAGLKVLQLINDNTATALSYGVFRRKDINSTAQNVMFYDMGSGTTVCTIVTYQTVKTKEAGMQPQLQIRGVGFDRTLGGLEMELRLREHLAKLFNEQRRGQKAKDVRENPRAMAKLLREANRLKTVLSANADHMAQIEGLMDDVDFKAKVTRVESEELCADLFERVPGPVQQALQSAEMSLDEIEQVILVGGATRVPKVQEVLLKAVGKEELGKNINADEAAAMGAVYQAAALSKAFKVKPFVVRDAVIYPILVEFTREVEEEPGVRSLKHNKRVLFSRMGPYPQGKVITFNRYSHDFNFHINYGDLGFLGPEDLRVFGSQNLTTVKLKGVGESLKKYPDYESKGIKAHFNLDESGVLSLDRVESVFETLVEDSPEEESTLTKLGNTISSLFGGGTSSDAKENGTDAVQEEEESPTEGSKDEPGEQGDLKEETEAPVEDTSQPPPPEPKGDAAPEGEKPDEKESGGKSEAQKPEEKGQSGPEGVPPAPEEEKKQKPARKQKMVEEIGVELAVLDLPDLPEDELARSVKKLEDLTLRDLEKQEREKAANSLEAFIFETQDKLYQPEYQEVSTEEQREEISGKLSATSTWLEDEGFGATTVMLKEKLAELKKLCQGLFFRVEERRKWPERLSALDNLLNHSSIFLKGARLIPEMDQIFTEVEMTTLEKVINDTWAWKNATLAEQAKLPATEKPVLLSKDIEAKMMALDREVQYLLNKAKFTKPRPRPKDKNGTRTEPPLNATAGDQEEKVIPPAGQPEEAKPILEPDKEETTTEPTDSEPLELGGPGAESEPKEQTAGQKRSSKNDEL
For the molecule B1, the binding entry is listed as “binds”.
